PubChem BioAssay AID1259323 – Peter MacCallum Cancer Centre – 2017

Purpose: 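Kinase siRNA screen linking the PAR2 receptor to the TRPV4 channel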 (primary screen)
Cell system: human HEK293 cells stably carrying inducible TRPV4
Reagent: siRNA pool against human genes
Conditions: PAR2 activation; agonist identity and dose not given
Detection: 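Real-time Fura-2 calcium after PAR2 activation; early peak and later plateau each as % of mock-transfected wells on the plate, mean of two plates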
Scale: TRPV4 plateau calcium, % of mock: higher = stronger sustained TRPV4 calcium entry than mock; PAR2 peak calcium, % of mock: higher = stronger early PAR2 calcium response than mock
Rule for the call: 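Active if plateau calcium is under 90% of mock and early peak calcium stays over 79% of mock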
In all, the deposit lists 715 reagents; below is an unselected part. 91 of them (13%) count as active. 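Active pools lower the sustained TRPV4 phase but spare the early PAR2 peak; PAR2 agonist and dose are not stated; pools repeat across wells.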 A number with no mark means an inactive call. Reagents against one gene are numbered here. A reagent listed more than once was tested more than once; the source does not tell the runs apart. The record does not give: the amount of reagent, the time to read-out.

Gene | pool no. | TRPV4 plateau calcium, % of mock | PAR2 peak calcium, % of mock
PRKAA1 (GeneID 5562) | 1 | 119 | 112
CSNK1G3 (GeneID 1456) | 1 | 93.7 | 95.2
STK40 (GeneID 83931) | 1 | 90.9 | 93.4
STK40 (GeneID 83931) | 1 | 89.1 (active) | 90.3
CILK1 (GeneID 22858) | 1 | 106 | 102
BUB1 (GeneID 699) | 1 | 84.1 | 78.8
PAK5 (GeneID 57144) | 1 | 95.1 | 99.4
STK10 (GeneID 6793) | 1 | 87.9 (active) | 89.4
LRRK2 (GeneID 120892) | 1 | 104 | 102
PIK3R3 (GeneID 8503) | 1 | 101 | 95.5
STK35 (GeneID 140901) | 1 | 98.5 | 101
AURKA (GeneID 6790) | 1 | 104 | 97.2
BMPR1A (GeneID 657) | 1 | 93.8 | 101
NLK (GeneID 51701) | 1 | 112 | 108
TGFBR3 (GeneID 7049) | 1 | 89.9 (active) | 98.2
ADPGK (GeneID 83440) | 1 | 102 | 104
MAPK8 (GeneID 5599) | 1 | 94.8 | 93.1
PINK1 (GeneID 65018) | 1 | 101 | 97.8
CMPK1 (GeneID 51727) | 1 | 85.1 (active) | 90.4
PRKACB (GeneID 5567) | 1 | 100 | 93.2
PAK1 (GeneID 5058) | 1 | 99.8 | 94.5
HK3 (GeneID 3101) | 1 | 113 | 111
RIOK3 (GeneID 8780) | 1 | 109 | 102
ATR (GeneID 545) | 1 | 104 | 102
PIM2 (GeneID 11040) | 1 | 97.9 | 98.8
ALDH18A1 (GeneID 5832) | 1 | 105 | 102
LMTK2 (GeneID 22853) | 1 | 98.2 | 96.2
MAST2 (GeneID 23139) | 1 | 96.5 | 87.6
STK17A (GeneID 9263) | 1 | 83.6 (active) | 85.2
HK2 (GeneID 3099) | 1 | 82.3 (active) | 91
PRKCI (GeneID 5584) | 1 | 106 | 101
RYK (GeneID 6259) | 1 | 97.1 | 93.5
NEK5 (GeneID 341676) | 1 | 100 | 96.6
IRAK2 (GeneID 3656) | 1 | 118 | 106
RPS6KA6 (GeneID 27330) | 1 | 105 | 109
HSPB8 (GeneID 26353) | 1 | 107 | 99.1
BMP2K (GeneID 55589) | 1 | 95.3 | 94

Hits, among the entries above:
Gene | pool no. | TRPV4 plateau calcium, % of mock | PAR2 peak calcium, % of mock
STK40 (GeneID 83931) | 1 | 89.1 (active) | 90.3
STK10 (GeneID 6793) | 1 | 87.9 (active) | 89.4
TGFBR3 (GeneID 7049) | 1 | 89.9 (active) | 98.2
CMPK1 (GeneID 51727) | 1 | 85.1 (active) | 90.4
STK17A (GeneID 9263) | 1 | 83.6 (active) | 85.2
HK2 (GeneID 3099) | 1 | 82.3 (active) | 91

The listing continues:
Gene | pool no. | TRPV4 plateau calcium, % of mock | PAR2 peak calcium, % of mock
PRKAA2 (GeneID 5563) | 1 | 86.7 (active) | 89.6
CDK4 (GeneID 1019) | 1 | 99.2 | 98.7
AK4 (GeneID 205) | 1 | 106 | 100
EFNA4 (GeneID 1945) | 1 | 96.1 | 91.3
TRIB3 (GeneID 57761) | 1 | 100 | 97.8
GAK (GeneID 2580) | 1 | 106 | 102
HIPK1 (GeneID 204851) | 1 | 111 | 112
MAP4K1 (GeneID 11184) | 1 | 104 | 103
ACVR2B (GeneID 93) | 1 | 89.2 (active) | 92.1
ULK1 (GeneID 8408) | 1 | 94.4 | 96.8
UHMK1 (GeneID 127933) | 1 | 93.8 | 92.7
STK38 (GeneID 11329) | 1 | 102 | 102
NME2 (GeneID 4831) | 1 | 97.8 | 96.4
MTOR (GeneID 2475) | 1 | 86.2 (active) | 87.9
MKNK2 (GeneID 2872) | 1 | 94.1 | 96.1
PRPS2 (GeneID 5634) | 1 | 99.4 | 99.6
PIM1 (GeneID 5292) | 1 | 100 | 94.7
CDK8 (GeneID 1024) | 1 | 102 | 94.7
RPS6KB2 (GeneID 6199) | 1 | 91 | 87
SGK3 (GeneID 23678) | 1 | 116 | 106
MYO3A (GeneID 53904) | 1 | 94.7 | 91.4
PNCK (GeneID 139728) | 1 | 92.2 | 101
TSSK6 (GeneID 83983) | 1 | 104 | 94.8
TSSK6 (GeneID 83983) | 2 | 85.2 (active) | 86.1
MAP3K9 (GeneID 4293) | 1 | 95.3 | 99.5
IP6K1 (GeneID 9807) | 1 | 97.7 | 97.1
VRK2 (GeneID 7444) | 1 | 90.8 | 91.8
BRD4 (GeneID 23476) | 1 | 99.7 | 96.9
MAP3K11 (GeneID 4296) | 1 | 94.1 | 89.9
MELK (GeneID 9833) | 1 | 94.2 | 99
PIP4K2B (GeneID 8396) | 1 | 100 | 101
MVK (GeneID 4598) | 1 | 111 | 106
WEE1 (GeneID 7465) | 1 | 92.1 | 83.3
PKN1 (GeneID 5585) | 1 | 93.3 | 100
MAPKAPK5 (GeneID 8550) | 1 | 99.5 | 98.1
CKMT2 (GeneID 1160) | 1 | 93 | 91.6
MAPK10 (GeneID 5602) | 1 | 109 | 102
BRD2 (GeneID 6046) | 1 | 105 | 100
CDK5 (GeneID 1020) | 1 | 101 | 94.8
PIK3R5 (GeneID 23533) | 1 | 83 (active) | 83.9
CDK14 (GeneID 5218) | 1 | 118 | 104
DCLK2 (GeneID 166614) | 1 | 93.1 | 97.6
CDKL3 (GeneID 51265) | 1 | 104 | 96.5
KIT (GeneID 3815) | 1 | 98.3 | 101
RPS6KB1 (GeneID 6198) | 1 | 129 | 111
TSKS (GeneID 60385) | 1 | 95.3 | 96.3
PDPK1 (GeneID 5170) | 1 | 98.8 | 98.4
